# From article PMC7041944
# Chains of the proteins cited; added tags and fusions are not shown.
# UniProt P33534: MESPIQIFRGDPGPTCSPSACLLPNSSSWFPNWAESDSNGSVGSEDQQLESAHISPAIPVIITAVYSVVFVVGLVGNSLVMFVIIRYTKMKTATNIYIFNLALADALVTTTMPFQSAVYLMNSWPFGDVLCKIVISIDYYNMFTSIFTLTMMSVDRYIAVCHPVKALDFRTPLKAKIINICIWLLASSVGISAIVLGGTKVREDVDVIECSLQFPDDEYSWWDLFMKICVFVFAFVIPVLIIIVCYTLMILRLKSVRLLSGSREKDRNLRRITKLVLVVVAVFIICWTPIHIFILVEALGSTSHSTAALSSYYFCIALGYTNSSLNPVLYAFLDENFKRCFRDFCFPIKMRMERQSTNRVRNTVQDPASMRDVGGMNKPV
# UniProt Q99MK8: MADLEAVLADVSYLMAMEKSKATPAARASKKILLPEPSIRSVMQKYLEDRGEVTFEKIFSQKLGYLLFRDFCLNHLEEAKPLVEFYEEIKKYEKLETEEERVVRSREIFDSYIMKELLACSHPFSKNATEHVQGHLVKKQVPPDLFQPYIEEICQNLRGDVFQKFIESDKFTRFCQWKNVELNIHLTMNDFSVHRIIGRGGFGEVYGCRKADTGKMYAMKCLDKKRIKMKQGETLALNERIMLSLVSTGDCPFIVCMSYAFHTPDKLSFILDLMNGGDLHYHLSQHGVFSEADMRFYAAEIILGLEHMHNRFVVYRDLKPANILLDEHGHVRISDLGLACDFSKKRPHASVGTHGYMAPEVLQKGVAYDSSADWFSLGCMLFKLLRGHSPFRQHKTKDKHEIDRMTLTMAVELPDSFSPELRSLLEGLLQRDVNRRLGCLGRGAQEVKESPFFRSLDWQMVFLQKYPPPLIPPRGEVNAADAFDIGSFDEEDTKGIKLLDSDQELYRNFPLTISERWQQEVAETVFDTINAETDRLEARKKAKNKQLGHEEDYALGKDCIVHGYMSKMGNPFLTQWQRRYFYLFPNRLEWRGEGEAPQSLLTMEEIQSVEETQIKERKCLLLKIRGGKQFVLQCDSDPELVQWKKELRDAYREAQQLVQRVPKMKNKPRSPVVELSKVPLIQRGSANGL
# Results are given in words; binding and its absence hold for the method and conditions named. Some binding calls cover weakened binding; strength is not graded here.
# Tests used:
# [1] = target: Super ecliptic pHluorin (SEP)-KOR, murine (murine) (UniProt P33534); assay: TIR-FM recruitment to antibody-clustered receptors in living cells; as a3, frames collected immediately before agonist
# [2] = target: Super ecliptic pHluorin (SEP)-KOR, murine (murine) (UniProt P33534); assay: condition: only with etorphine (1 uM) as the agonist; TIR-FM recruitment to antibody-clustered receptors in living cells; as a3, but with etorphine (1 uM) instead of DynA
# [3] = target: Super ecliptic pHluorin (SEP)-KOR, murine (murine) (UniProt P33534); assay: TIR-FM recruitment to antibody-clustered receptors in living cells; HEK293 cell expressing GRK2-mCherry and SEP-KOR; KOR cross-linked with polyclonal rabbit anti-GFP antibody (1:100, 15 min, 37 C); 1 uM DynA, 1-2 min
substance,measurement,setting,value
"GRK2-mCherry, murine (from UniProt Q99MK8 1-689) (enzyme)",binding,[1],no binding (condition: without agonist)
same,binding,[2],no binding
same,binding,[3],binds
